Screen size: about 360,000 compounds; about 780 (0.22%) were called active. This list was built around the results that the source calls inconclusive (neither active nor inactive); the mix of calls is not that of the screen. No stated cut-off is given here; in the data, active means inhibition above about 35% (passing the limit was not always enough); inconclusive means no clear call, values can overlap the other calls.
test system: Botulinum neurotoxin type F light chain protease (Clostridium botulinum); test: BoNT/F light chain protease inhibitors, primary screen, biochemical, flow cytometry, MLPCN library (AID 588497); settings: Multiplex microsphere protease cleavage assay, at 10 µM, hits give high values; further: plate controls were buffer without enzyme for full effect and enzyme alone for no effect

Structure (SMILES) | inhibition
C=CCN(c1ccccc1)S(=O)(=O)c1cccc(C(=O)NCc2ccncc2)c1 | inconclusive: -2.7%
Cc1ccc([C@H]2N[C@]3(CCCN(Cc4ccc(Cl)cc4)C3=O)[C@H]3C(=O)N(C)C(=O)[C@@H]23)cc1 | inactive: -1.2%
COc1ccc(Oc2ncc(CN3CCN(c4ccccc4)CC3)s2)cc1 | inconclusive: 1.6%
CCOC(=O)CSc1cc(-c2ccccc2)nc2ncnn12 | inconclusive: -13.1%
CCCCOc1ccc(CSCCN)cc1Cl | inconclusive: -99.9%
O=C(Nc1cccc(NC(=O)c2ccccc2)n1)c1ccccc1 | inconclusive: -4.4%
OC(CNCc1ccccc1F)COc1cccc2ccccc12 (stereo not drawn) | active: 35.4%
COc1ccc(S(=O)(=O)N(C(C)=O)c2ccc3oc(=O)sc3c2)cc1 | inactive: 1.4%
CCN1CCN(CC(=O)Nc2nc3ccccc3s2)CC1 | inconclusive: -47.6%
CC(=O)c1cccc(NC(=O)NCc2ccc3c(c2)OCO3)c1 | inconclusive: 9.1%
O=C(c1cccnc1)N1CCN(Cc2ccc3ccccc3c2)CC1 | inconclusive: 6.9%
Clc1cc(-c2ccccc2)nc(-c2ccccc2)n1 | inconclusive: 20.6%
Cc1cc(C)n2nc(C(=O)OC(C)C(=O)c3cc(C)c(C)cc3C)nc2n1 (stereo not drawn) | inconclusive: -39%
C/C(CCC1CC(C)(C)OC1=O)=N\NC(N)=S (stereo not drawn) | inconclusive: -91.8%
Cc1nc2ccc([N+](=O)[O-])cc2c(=O)n1Cc1ccccc1Br | inconclusive: 0.6%
COC(=O)c1[nH]c2cccc(OC)c2c1NC(=O)CN(C)CC1OCCO1 | inactive: -2%
O=C(Nc1cccc(C(F)(F)F)c1)c1cccc(NS(=O)(=O)c2ccc(O)c(C(=O)O)c2)c1 | inconclusive: -8.9%
CCOC(=O)C1CCCN(C(=O)/C(=C/c2ccco2)NC(=O)c2ccccc2)C1 (stereo not drawn) | inactive: -8.3%
Fc1ccc(-n2c(-c3cc(C4CC4)[nH]n3)n[nH]c2=S)cc1Cl | inconclusive: -50.8%
CCn1c(SCC(=O)c2c[nH]c3ccccc23)nc2cc(S(=O)(=O)N3CCOCC3)ccc21 | inactive: -16.5%

Structure (SMILES) | inhibition
O=C1NC[C@H](CCCCN2C[C@H](Cc3ccccc3)N(CC3CCCCC3)C(=O)C2=O)N(CC2CCCCC2)C1=O | inactive: -5%
COCCNC(=O)c1cccc2c(-c3ccnn3C)coc12 | inactive: -4%
CN1CCN(C(=O)c2cc3c(s2)-c2ccccc2S(=O)(=O)C3)CC1 | inactive: -5.9%
N=c1oc2ccc([N+](=O)[O-])cc2cc1C(=O)NCc1ccccc1 | inconclusive: 9.8%
O=S(=O)(Nc1ccc(C(O)(C(F)(F)F)C(F)(F)F)cc1)c1cccc2ccccc12 | inactive: 4.7%
Nc1nnnn1/N=C/c1ccc(Br)cc1 | inconclusive: 8%
O=C(Nc1ccc(-c2cnco2)cc1)c1ccccc1 | inconclusive: 2.1%
CCc1cc(C(=O)OC)c(N2C(=O)C3C4C=CC(C4)C3C2=O)s1 (stereo not drawn) | inactive: -2.7%
COc1ccc(CNCc2cccn2C)cc1 | inconclusive: -49.9%
Cc1ccccc1C(=O)Nc1nnc(CC(=O)N/N=C/c2ccncc2)s1 | inconclusive: -52.6%
CCc1ccc(S(=O)(=O)Nc2ccc(N3CCN(C)CC3)cc2)cc1 | inconclusive: -72.9%
CN(CCOc1ccccc1)C(=O)c1cc([N+](=O)[O-])cc([N+](=O)[O-])c1 | active: 42.3%
CC(=O)NNC(=O)CSc1nnc(-c2ccccc2)c(-c2ccccc2)n1 | inconclusive: 16.4%
COc1cccc(C(=O)NNC(=O)c2ccccc2)c1 | inconclusive: 10.6%
COc1cc(C2OC(=O)c3ccccc3S2)cc(OC)c1OC (stereo not drawn) | inconclusive: -26.7%
CC(C)(C)c1cccc(C2(O)C(=O)c3ccccc3C2=O)c1O | inconclusive: -140%
C=CCN1CC(C(=O)N2CCC(Cc3ccc(Cl)cc3)(C(=O)OCC)CC2)CC1=O (stereo not drawn) | inactive: -5.7%
N#CCC(=O)Nc1ccc(C(=O)OCC(=O)c2ccc3c(c2)OCO3)cc1 | inconclusive: 18.7%
CC(NC(=O)CCc1ccccc1)c1ccc2c(c1)OCO2 (stereo not drawn) | inconclusive: 22.9%
O=C(Nc1ccc(S(=O)(=O)N2CCCC2)cc1)c1ccccc1 | inconclusive: 18.3%

Three successive records out of the list so far:
Structure (SMILES) | inhibition
C=CCN(c1ccccc1)S(=O)(=O)c1cccc(C(=O)NCc2ccncc2)c1 | inconclusive: -2.7%
Cc1ccc([C@H]2N[C@]3(CCCN(Cc4ccc(Cl)cc4)C3=O)[C@H]3C(=O)N(C)C(=O)[C@@H]23)cc1 | inactive: -1.2%
COc1ccc(Oc2ncc(CN3CCN(c4ccccc4)CC3)s2)cc1 | inconclusive: 1.6%

Going on with the list:

Structure (SMILES) | inhibition
O=C1NCCCC1C(=O)N/N=C/c1cccc(Cl)c1 (stereo not drawn) | inconclusive: 1.6%
CCOC(=O)c1cc2ccccc2n1CC(=O)c1ccccc1 | inconclusive: 10.5%
COc1ccc(NC(=O)c2cc(-c3ccccc3Cl)on2)cc1 | inconclusive: -13.5%
O=C(CCC1CCCC1)Nc1cc(C(F)(F)F)ccc1N1CCOCC1 | inconclusive: 26.1%
CCc1c(C)sc(NC(=O)c2ccco2)c1C#N | inactive: -1.9%
COc1ccc(S(=O)(=O)N2CCN(Cc3ccccc3)CC2)c(C)c1 | inconclusive: 4%
O=C(CN(C(=O)Cn1nnc(-c2cccs2)n1)c1ccc2c(c1)OCCO2)NCc1ccccc1 | inactive: -1.7%
Cc1ccc(-c2nn(-c3ccccc3)cc2C(=O)NC2CCC(O)CC2)cc1 (stereo not drawn) | inconclusive: -55.1%
S=c1[nH]nc(-c2cccs2)n1/N=C/c1cn(-c2ccccc2)nc1-c1ccc(Cl)cc1 | inconclusive: -47.7%
COc1ccc(Oc2ccc(N/C=C3/CCCC3=O)cc2)cc1 | inactive: -8.1%
CC(=O)c1ccc(CC2SC(N)=NC2=O)cc1 (stereo not drawn) | inconclusive: -12.9%
O=C1N=C2SCCN2/C1=C\c1ccc(Cl)cc1 | inactive: -3.8%
O=C(Nc1nc2ccsc2c(=O)s1)c1ccc(Cl)cc1 | inconclusive: 21.6%
O=C(c1ccc2c(=O)n3c(nc2c1)CCC3)N1CCCSC1=Nc1ccccc1 | inconclusive: -3.9%
FC(F)Sc1ccc(NC(=S)NC(c2ccccc2)c2ccccc2)cc1 | inactive: -3.2%
COc1ccccc1Nc1nc(N)nc(CCl)n1 | inconclusive: -1.4%
Cn1cc(C(=O)C(=O)N2CCCC2)c2ccccc21 | inconclusive: 25.2%
COc1ccc(-c2nc(-c3ccccc3)[nH]c(=O)c2C#N)cc1 | inactive: 13.4%
